Results as given in paper PMC7617541.

Sequences of proteins named here, by UniProt entry; tags and fusion partners are left off. A change or cut given only in a name is not applied to a line headed by its entry.
UniProt P50502: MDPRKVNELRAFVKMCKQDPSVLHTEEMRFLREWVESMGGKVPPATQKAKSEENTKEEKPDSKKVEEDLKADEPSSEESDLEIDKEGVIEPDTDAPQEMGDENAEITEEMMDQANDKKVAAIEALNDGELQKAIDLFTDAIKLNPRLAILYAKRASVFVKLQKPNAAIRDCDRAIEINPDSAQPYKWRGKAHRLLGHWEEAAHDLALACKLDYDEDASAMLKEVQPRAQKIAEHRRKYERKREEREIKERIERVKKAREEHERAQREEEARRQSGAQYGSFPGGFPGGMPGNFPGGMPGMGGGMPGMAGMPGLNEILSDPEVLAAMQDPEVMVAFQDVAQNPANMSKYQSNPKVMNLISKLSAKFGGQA
UniProt P11142: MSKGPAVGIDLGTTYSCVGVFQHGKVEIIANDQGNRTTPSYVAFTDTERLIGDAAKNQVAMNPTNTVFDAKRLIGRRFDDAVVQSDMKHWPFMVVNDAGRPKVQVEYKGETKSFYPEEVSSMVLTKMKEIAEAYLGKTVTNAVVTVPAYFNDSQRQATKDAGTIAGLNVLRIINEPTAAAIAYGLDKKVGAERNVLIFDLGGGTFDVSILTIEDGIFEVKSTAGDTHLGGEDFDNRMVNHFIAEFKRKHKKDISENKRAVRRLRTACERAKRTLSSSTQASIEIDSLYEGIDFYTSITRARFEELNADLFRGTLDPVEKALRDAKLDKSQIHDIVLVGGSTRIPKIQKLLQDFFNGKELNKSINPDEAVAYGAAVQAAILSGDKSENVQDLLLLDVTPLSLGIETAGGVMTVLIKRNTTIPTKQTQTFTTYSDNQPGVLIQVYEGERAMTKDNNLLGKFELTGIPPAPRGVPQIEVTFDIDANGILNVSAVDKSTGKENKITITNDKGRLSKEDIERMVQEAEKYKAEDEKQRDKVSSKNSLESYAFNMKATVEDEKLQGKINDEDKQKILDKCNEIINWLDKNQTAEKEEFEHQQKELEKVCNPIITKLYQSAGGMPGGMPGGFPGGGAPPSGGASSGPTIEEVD

Columns and labels:
[1] = molecular target: ∆STI-ST13-1xFLAG (human) (UniProt P50502); assay: co-IP; FLAG-tagged St13 variants purified from lysates of transfected ∆ST13 HEK293 cells on FLAG-M2 resin (physiological or high salt), eluted with FLAG peptide, SDS-PAGE
[2] = molecular target: ∆TPR-ST13-1xFLAG (human) (UniProt P50502); assay: as above

Substance	binding [1]	binding [2]
Stip1 (endogenous, HEK293 cells) (from UniProt P31948 1-543)	binds	no binding
Hsc70 (endogenous, HEK293 cells) (from UniProt P11142 1-646)	binds	no binding

Results are given in words; binding and its absence hold for the method and conditions named. In cells and extracts the contact can be indirect. For some of these results: Binding can be weak; no strength is given.
